Test results taken from PMC5620150.
No constants are given. Whether binding was seen depends on the method and setting. Binding seen in cells or lysates may run through a third protein. A yes stands for co-enrichment or nearness to the bait. Other partners may have been found. Tags and fused reporters may be left off the sequences shown.

Chains of the proteins cited; added tags and fusions are not shown.
UniProt Q92769: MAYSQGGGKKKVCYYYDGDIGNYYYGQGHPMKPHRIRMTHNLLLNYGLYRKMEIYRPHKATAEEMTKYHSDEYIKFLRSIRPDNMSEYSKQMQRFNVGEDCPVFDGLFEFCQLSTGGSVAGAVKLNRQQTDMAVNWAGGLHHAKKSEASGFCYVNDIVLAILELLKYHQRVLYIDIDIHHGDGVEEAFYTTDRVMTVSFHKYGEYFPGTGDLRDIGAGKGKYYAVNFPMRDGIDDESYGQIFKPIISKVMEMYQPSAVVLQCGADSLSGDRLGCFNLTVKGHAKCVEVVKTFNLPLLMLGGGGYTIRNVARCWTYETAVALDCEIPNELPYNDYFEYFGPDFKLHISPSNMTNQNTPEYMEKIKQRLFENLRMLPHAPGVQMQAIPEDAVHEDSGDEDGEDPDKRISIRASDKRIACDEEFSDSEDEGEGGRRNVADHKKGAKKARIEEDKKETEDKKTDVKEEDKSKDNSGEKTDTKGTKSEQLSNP

Biological target: T1, flag tagged DAB2IP (UniProt Q5VWQ8)
T1 sequence: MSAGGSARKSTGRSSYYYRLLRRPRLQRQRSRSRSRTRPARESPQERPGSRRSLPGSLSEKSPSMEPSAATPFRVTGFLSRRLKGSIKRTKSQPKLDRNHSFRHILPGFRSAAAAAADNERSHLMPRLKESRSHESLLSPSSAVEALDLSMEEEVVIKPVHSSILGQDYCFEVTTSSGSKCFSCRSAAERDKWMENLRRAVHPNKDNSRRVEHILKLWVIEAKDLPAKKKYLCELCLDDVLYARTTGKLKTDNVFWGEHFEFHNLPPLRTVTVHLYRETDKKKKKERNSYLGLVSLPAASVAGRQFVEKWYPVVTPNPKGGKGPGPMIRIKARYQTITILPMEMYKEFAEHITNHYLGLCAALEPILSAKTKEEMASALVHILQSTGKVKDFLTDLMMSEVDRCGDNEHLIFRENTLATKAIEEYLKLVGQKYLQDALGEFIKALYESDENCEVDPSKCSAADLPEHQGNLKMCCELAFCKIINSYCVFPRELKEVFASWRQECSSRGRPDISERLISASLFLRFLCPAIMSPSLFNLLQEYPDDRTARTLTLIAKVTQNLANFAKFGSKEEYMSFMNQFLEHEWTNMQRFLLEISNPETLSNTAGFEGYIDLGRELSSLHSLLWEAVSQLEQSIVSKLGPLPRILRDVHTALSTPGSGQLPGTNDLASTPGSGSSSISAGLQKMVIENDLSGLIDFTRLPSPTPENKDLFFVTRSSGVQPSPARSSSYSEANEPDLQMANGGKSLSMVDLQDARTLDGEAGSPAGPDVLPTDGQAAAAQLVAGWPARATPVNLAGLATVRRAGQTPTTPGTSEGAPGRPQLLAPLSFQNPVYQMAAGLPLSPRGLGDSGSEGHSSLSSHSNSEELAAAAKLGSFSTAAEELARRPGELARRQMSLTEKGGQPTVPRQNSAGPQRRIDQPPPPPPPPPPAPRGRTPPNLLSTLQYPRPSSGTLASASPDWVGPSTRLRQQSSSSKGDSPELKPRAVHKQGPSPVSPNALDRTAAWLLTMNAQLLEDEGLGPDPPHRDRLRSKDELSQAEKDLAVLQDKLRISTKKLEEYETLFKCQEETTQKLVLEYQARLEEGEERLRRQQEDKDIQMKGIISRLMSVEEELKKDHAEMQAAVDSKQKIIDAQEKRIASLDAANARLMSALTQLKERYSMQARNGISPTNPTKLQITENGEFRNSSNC
Assay: affinity purification with mass spectrometry; cells transfected with flag tagged DAB2IP lysed, immunoprecipitated with anti-flag antibody; bands cut from Coomassie stained SDS-PAGE gel, Orbitrap Elite LC-MS/MS

binding: binds
Substance: histone deacetylase (HDAC2) (from UniProt Q92769 1-488) (enzyme)
